Reference: article PMC6050966, “Structure-Function Analysis of the Curli Accessory Protein CsgE Defines Surfaces Essential for Coordinating Amyloid Fiber Formation” (mBio, 2018)
These are yes or no findings as the source states them, for the method shown. Some binding calls cover weakened binding; strength is not graded here. Where a sequence is shown, tags or fusion partners need not be part of it.

Tests used:
[1] = molecular target: T1, WT CsgE (6x-His-tagged, E. coli MC4100) (E. coli MC4100), P0AE95; assay: SEC-MALS; Superdex 200 Increase 10/300 GL, 0.3 ml/min; protein at 2 mg/ml in 50 mM KHPO4 pH 7.3 with and without 150 mM NaCl; both purified; conditions: remark: other sources report otherwise
T1 chain: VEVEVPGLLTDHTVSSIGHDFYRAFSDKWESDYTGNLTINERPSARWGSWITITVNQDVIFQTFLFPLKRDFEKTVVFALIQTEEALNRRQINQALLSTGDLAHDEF

[2] = molecular target: T1, WT CsgE (6x-His-tagged, E. coli MC4100) …; assay: native gel or EMSA; native PAGE of purified CsgE (monomer peak) incubated at 37°C for various times; both purified; conditions: remark: other sources report otherwise

B1: WT CsgE (6x-His-tagged, E. coli MC4100), P0AE95 23-129 (natural protein)
chain: VEVEVPGLLTDHTVSSIGHDFYRAFSDKWESDYTGNLTINERPSARWGSWITITVNQDVIFQTFLFPLKRDFEKTVVFALIQTEEALNRRQINQALLSTGDLAHDEF
In the case of B1, the binding [1] is reported as “binds” and the binding [2] is reported as “binds”.
